Laboratory results as given in PMC8361268.
No constants are given. Whether binding was seen depends on the method and setting.

Target: saSrtA_(pneumoniae): Staphylococcus aureus sortase A with the β7–β8 loop residues from Streptococcus pneumoniae SrtA (Staphylococcus aureus) (UniProt Q2FV99)
Test: SEC; […] (0.05 M Tris pH 7.5, 0.15 M NaCl, 0.001 M TCEP); both purified

Substance: saSrtA_(pneumoniae): Staphylococcus aureus sortase A with the β7–β8 loop residues from Streptococcus pneumoniae SrtA (from UniProt Q2FV99) (enzyme)
- binding: no binding
